Patent US8741917B2, “Benzo [C] phenanthridines as antimicrobial agents” (Rutgers, The State University of New Jersey, priority 2009, dated 2014)
For at least one compound, name, drawing or mass did not settle the structure.

Protein sequences, listed by entry. Tags and fused reporters are not part of them. Lines headed by an entry give the natural chain unless they say otherwise; changes in a name come on top.
UniProt P17865: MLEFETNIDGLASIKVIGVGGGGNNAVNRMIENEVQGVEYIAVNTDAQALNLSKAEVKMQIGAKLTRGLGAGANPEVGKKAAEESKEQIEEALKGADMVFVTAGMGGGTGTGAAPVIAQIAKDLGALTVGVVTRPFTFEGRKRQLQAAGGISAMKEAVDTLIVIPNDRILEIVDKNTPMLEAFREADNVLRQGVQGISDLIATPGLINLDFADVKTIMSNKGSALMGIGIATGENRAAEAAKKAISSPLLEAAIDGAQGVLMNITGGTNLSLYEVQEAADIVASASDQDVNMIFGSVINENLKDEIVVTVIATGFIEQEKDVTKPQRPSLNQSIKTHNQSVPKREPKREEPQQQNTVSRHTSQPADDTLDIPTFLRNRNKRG

Target: Bacillus subtilis FtsZ (Bacillus subtilis, UniProt P17865)
Assay: 90°-angle light scattering assay of FtsZ polymerization
Format: biochemical
Conditions: compound 40 μM
Experimental: B[c]P inhibition of FtsZ polymerization can be tested using a 90°-angle light scattering assay for monitoring drug impact on FtsZ polymerization. This assay is premised on the increased light scattering properties of polymeric FtsZ relative to the monomeric form of the protein. To this end, the light scattering at 600 nm of 5 μM FtsZ is continuously monitored under polymerization conditions in the absence or presence of a B[c]P compound at concentrations ranging from 40 to 80 μM.
Polymerization is initiated by addition of 0.5 mM GTP. The rate and extent of FtsZ polymerization can be quantified by analyzing the light scattering profiles to derive maximal light scattering values (which provide a readout of the extent of polymerization) as well as the times required to reach half-maximal light scattering values (which provide a readout of the rate of polymerization).

With `C[n+]1cc2c3c(ccc2c2ccc4cc5c(cc4c21)OCO5)OCO3` [Sanguinarine] the “Maximal Light Scattering” value (readout of extent of polymerization, no compound: 3.40) was 3.06 a.u and the “Time to Reach Half-Maximal Light Scattering” value (readout of rate of polymerization, no compound: 91.6) was 216.4 s.
